According to PubChem BioAssay AID248 (DTP/NCI, 2004):
The list shows only some results of the screen, not a fair sample: it gathers tests that were run many times, whatever their T/C, doses with no T/C, and many T/C values between a quarter and a half above the control. Other doses and runs of a compound stand elsewhere. T/C is the treated group as % of the vehicle group. Some doses have a count of surviving animals in place of a T/C: the source files T/C as zero there, which appears to mark a toxic dose or a test without result, not a measured value. Some doses without a T/C left all or most animals alive at the check, yet need not have been tolerated: survival well below the control is almost never listed, so the zero probably covers shortened survival too. Counts of survivors are from the toxicity check (mostly the fifth day) where no day follows; animals may have died later. Schedules are NCI's codes, taken here to give the interval after Q, in days (D) or hours (H), and the number of doses after X. Some schedules carry Z or #; the key to these is not given. For survival time, the PubChem record calls one and a half times the control and up active, and a quarter to a half above the control has no call in these data; cut-offs in other NCI protocols can differ. Some entries were tested several times; the results are listed from low to high. Some T/C values carry the count of animals alive at the toxicity check (mostly the fifth day); where none is given, no animal had died by that day.

System: L1210 leukemia ip in BDF1 mice, survival T/C
Assay: NCI In Vivo Anticancer Drug Screen. Data for tumor model L1210 Leukemia (intraperitoneal) in B6D2F1 (BDF1) mice
Conditions: vehicle: saline, higher T/C = longer survival

Question: Which T/C (T/C endpoint: mean survival time, dose: 0.03 mg/kg/injection, schedule: Q03DX006 (ip)) does the source give for `Oc1cc(CN(CCCl)CCCl)c(O)cc1CN(CCCl)CCCl` here?
Answer: 134 % of control

Question: And the T/C (T/C endpoint: mean survival time, dose: 0.05 mg/kg/injection, schedule: Q03DX006 (ip))?
Answer: 142 % of control

Question: And the T/C (T/C endpoint: mean survival time, dose: 0.06 mg/kg/injection, schedule: Q07DX003 (ip))?
Answer: 128 % of control

Question: What about the T/C (T/C endpoint: mean survival time, dose: 0.1 mg/kg/injection, schedule: Q03DX006 (ip)) of the same compound?
Answer: 140 % of control

Question: What about the T/C (T/C endpoint: mean survival time, dose: 0.12 mg/kg/injection, schedule: Q07DX003 (ip)) of the same compound?
Answer: 127 % of control

Question: What about the T/C (T/C endpoint: mean survival time, dose: 0.12 mg/kg/injection, schedule: Q#A X Z (ip)) of the same compound?
Answer: 136 % of control

Question: What about the T/C (T/C endpoint: mean survival time, dose: 0.2 mg/kg/injection, schedule: Q03DX006 (ip)) of the same compound?
Answer: 128 % of control

Question: And the T/C (T/C endpoint: mean survival time, dose: 0.25 mg/kg/injection, schedule: Q#A X Z (ip))?
Answer: 136 % of control

Question: And the T/C (T/C endpoint: mean survival time, dose: 0.38 mg/kg/injection, schedule: Q03DX006 (ip))?
Answer: 136 % of control

Question: And the T/C (T/C endpoint: mean survival time, dose: 0.5 mg/kg/injection, schedule: Q01DX Z (ip))?
Answer: 138 % of control

Question: What about the T/C (T/C endpoint: mean survival time, dose: 0.75 mg/kg/injection, schedule: Q03DX006 (ip)) of the same compound?
Answer: 145 % of control

Question: And the T/C (T/C endpoint: mean survival time, dose: 1.0 mg/kg/injection, schedule: Q01DX010 (ip))?
Answer: 128 % of control

Question: What about the T/C (T/C endpoint: mean survival time, dose: 1.0 mg/kg/injection, schedule: Q01DX Z (ip)) of the same compound?
Answer: 130 % of control

Question: What about the T/C (T/C endpoint: mean survival time, dose: 1.0 mg/kg/injection, schedule: Q07DX003 (ip)) of the same compound?
Answer: 125 % of control

Question: What about the T/C (T/C endpoint: mean survival time, dose: 1.0 mg/kg/injection, schedule: Q#A X Z (ip)) of the same compound?
Answer: 127 % of control

Question: And the T/C (T/C endpoint: mean survival time, dose: 1.25 mg/kg/injection, schedule: Q01DX010 (ip))?
Answer: 128 % of control

Question: And the T/C (T/C endpoint: mean survival time, dose: 1.5 mg/kg/injection, schedule: Q03DX006 (ip))?
Answer: 127 % of control

Question: What about the T/C (T/C endpoint: mean survival time, dose: 2.0 mg/kg/injection, schedule: Q01DX010 (ip)) of the same compound?
Answer: 132 % of control

Question: And the T/C (T/C endpoint: mean survival time, dose: 2.0 mg/kg/injection, schedule: Q01DX Z (ip))?
Answer: 129 % of control

Question: What about the T/C (T/C endpoint: mean survival time, dose: 2.0 mg/kg/injection, schedule: Q07DX003 (ip)) of the same compound?
Answer: 132 % of control [5 of 6 alive]

Question: What about the T/C (T/C endpoint: mean survival time, dose: 2.0 mg/kg/injection, schedule: Q#A X Z (ip)) of the same compound?
Answer: 131 % of control

Question: What about the T/C (T/C endpoint: mean survival time, dose: 2.5 mg/kg/injection, schedule: Q01DX009 (ip)) of the same compound?
Answer: 135 % of control

Question: And the T/C (T/C endpoint: mean survival time, dose: 2.5 mg/kg/injection, schedule: Q01DX010 (ip))?
Answer: 133 % of control

Question: And the T/C (T/C endpoint: mean survival time, dose: 4.0 mg/kg/injection, schedule: Q01DX001 (ip))?
Answer: 145 % of control

Question: And the T/C (T/C endpoint: mean survival time, dose: 4.0 mg/kg/injection, schedule: Q01DX Z (ip))?
Answer: 125 % of control

Question: And the T/C (T/C endpoint: mean survival time, dose: 4.0 mg/kg/injection, schedule: Q07DX003 (ip))?
Answer: 131 % of control

Question: What about the T/C (T/C endpoint: mean survival time, dose: 4.0 mg/kg/injection, schedule: Q#A X Z (ip)) of the same compound?
Answer: 135 % of control

Question: What about the T/C (T/C endpoint: mean survival time, dose: 5.0 mg/kg/injection, schedule: Q01DX009 (ip)) of the same compound?
Answer: 140 % of control

Question: What about the T/C (T/C endpoint: mean survival time, dose: 6.0 mg/kg/injection, schedule: Q03DX006 (ip)) of the same compound?
Answer: 138 % of control

Question: What about the T/C (T/C endpoint: mean survival time, dose: 8.0 mg/kg/injection, schedule: Q01DX Z (ip)) of the same compound?
Answer: 129 % of control

Question: And the T/C (T/C endpoint: mean survival time, dose: 8.0 mg/kg/injection, schedule: Q07DX003 (ip))?
Answer: 143 % of control

Question: And the T/C (T/C endpoint: mean survival time, dose: 12.0 mg/kg/injection, schedule: Q03DX006 (ip))?
Answer: 138 % of control

Question: What about the T/C (T/C endpoint: mean survival time, dose: 32.0 mg/kg/injection, schedule: Q01DX001 (ip)) of the same compound?
Answer: 130 % of control

Question: And the survivor count (T/C endpoint: mean survival time, dose: 32.0 mg/kg/injection, schedule: Q01DX006 (iv))?
Answer: 0 of 6

Question: What about the survivor count (T/C endpoint: mean survival time, dose: 32.0 mg/kg/injection, schedule: Q07DX003 (ip)) of the same compound?
Answer: 4 of 6

Question: What about the survivor count (T/C endpoint: mean survival time, dose: 64.0 mg/kg/injection, schedule: Q01DX006 (iv)) of the same compound?
Answer: 0 of 6

Question: And the survivor count (T/C endpoint: mean survival time, dose: 128.0 mg/kg/injection, schedule: Q01DX006 (iv))?
Answer: 0 of 6

Question: And the survivor count (T/C endpoint: mean survival time, dose: 128.0 mg/kg/injection, schedule: Q01DX Z (im))?
Answer: 3 of 6

Question: What about the survivor count (T/C endpoint: mean survival time, dose: 128.0 mg/kg/injection, schedule: Q01DX Z (oral)) of the same compound?
Answer: 4 of 6

Question: And the survivor count (T/C endpoint: mean survival time, dose: 128.0 mg/kg/injection, schedule: Q01DX Z (sc))?
Answer: 3 of 6

Question: And the survivor count (T/C endpoint: mean survival time, dose: 128.0 mg/kg/injection, schedule: Q07DX003 (ip))?
Answer: 2 of 6

Question: And the survivor count (T/C endpoint: mean survival time, dose: 256.0 mg/kg/injection, schedule: Q01DX Z (oral))?
Answer: 3 of 6

Question: And the survivor count (T/C endpoint: mean survival time, dose: 512.0 mg/kg/injection, schedule: Q01DX001 (ip))?
Answer: 1 of 6

Question: What about the survivor count (T/C endpoint: mean survival time, dose: 512.0 mg/kg/injection, schedule: Q01DX Z (oral)) of the same compound?
Answer: 2 of 6

Question: And the survivor count (T/C endpoint: mean survival time, dose: 32.0 micrograms/kg/injection, schedule: Q03DX003 (ip))?
Answer: 5 of 6

Question: What about the survivor count (T/C endpoint: mean survival time, dose: 37.5 micrograms/kg/injection, schedule: Q07DX002 (ip)) of the same compound?
Answer: 6 of 6

Question: What about the survivor count (T/C endpoint: mean survival time, dose: 62.5 micrograms/kg/injection, schedule: Q03DX003 (ip)) of the same compound?
Answer: 6 of 6

Question: And the survivor count (T/C endpoint: mean survival time, dose: 75.0 micrograms/kg/injection, schedule: Q07DX002 (ip))?
Answer: 2 of 6

Question: And the survivor count (T/C endpoint: mean survival time, dose: 150.0 micrograms/kg/injection, schedule: Q07DX001 (ip))?
Answer: 5 of 6

Question: And the survivor count (T/C endpoint: mean survival time, dose: 300.0 micrograms/kg/injection, schedule: Q07DX001 (ip))?
Answer: 1 of 6

Question: What about the T/C (T/C endpoint: median survival time, dose: 1.25 mg/kg/injection, schedule: Q01DX009 (ip)) of the same compound?
Answer: 127 % of control

Question: What about the T/C (T/C endpoint: median survival time, dose: 2.5 mg/kg/injection, schedule: Q01DX009 (ip)) of the same compound?
Answer: 127 and 128 % of control

Question: And the T/C (T/C endpoint: median survival time, dose: 5.0 mg/kg/injection, schedule: Q01DX009 (ip))?
Answer: 142 % of control
